1 sequence from article PMC7289862, “Real-time tracking reveals catalytic roles for the two DNA binding sites of Rad51” (Nature Communications, 2019) can be followed below.

Numbering of substitutions follows the chain as printed. Construct, isoform or probe ends are uncertain for at least one entry. Weaker means in comparison with the reference protein, sequence or condition of that experiment. Where a protein sequence is shown, tags need not be part of it.

Data set [1] addresses T1, Rad51-S2 R324A,K334A (Schizosaccharomyces pombe) (UniProt P36601).
T1 sequence (looked up, limits assumed): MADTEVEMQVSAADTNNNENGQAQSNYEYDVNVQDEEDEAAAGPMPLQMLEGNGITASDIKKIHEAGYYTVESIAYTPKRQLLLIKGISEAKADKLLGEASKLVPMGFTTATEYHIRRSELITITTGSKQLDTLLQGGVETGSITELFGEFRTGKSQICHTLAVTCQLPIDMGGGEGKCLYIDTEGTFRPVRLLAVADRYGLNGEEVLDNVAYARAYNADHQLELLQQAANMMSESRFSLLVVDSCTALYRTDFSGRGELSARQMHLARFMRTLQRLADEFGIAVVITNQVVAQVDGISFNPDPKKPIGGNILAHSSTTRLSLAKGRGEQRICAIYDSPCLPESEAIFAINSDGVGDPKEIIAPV
Nature of the data set: fluorescence anisotropy. To be noted: 1 mM ATP, 3 mM MgCl2, some binding retained, Kd N.D., 30 mM HEPES-KOH pH 7.5, 100 mM KCl, 3 mM MgCl2, 1 mM DTT, 5% glycerol, 25 C (EMSA: 2 mM ATP, 37 C, then 0.2% glutaraldehyde), recombinant protein, label: 5' TAMRA on strand 1.

Data set [2] deals with T2, Rad51-L1 R257A (Schizosaccharomyces pombe) (UniProt P36601).
T2 sequence (looked up, limits assumed): T1 sequence (looked up, limits assumed) with R257A, A324R, A334K
Nature of the data set: fluorescence anisotropy. Particulars: 1 mM ATP, 3 mM MgCl2, near-complete loss, Kd N.D., 30 mM HEPES-KOH pH 7.5, 100 mM KCl, 3 mM MgCl2, 1 mM DTT, 5% glycerol, 25 C (EMSA: 2 mM ATP, 37 C, then 0.2% glutaraldehyde), recombinant protein, label: 5' TAMRA on strand 1. Background: Fluorescence polarisation rises when a labelled molecule tumbles more slowly, as on binding a larger partner.

With “AAATGAACATAAAGTAAATAAGTATAAGGATAATACAAAATAAGTAAATGAATAAACATAGAAAATAAAGTA (double strand) [[TAMRA]16A(-)_72 bp duplex]”, the binding result in data set [1] and in data set [2] was “binds more weakly” throughout.
